Data source: PubChem BioAssay AID1259308 (NCATS, 2017)
Shown is an unselected part of about 59,000 reagents tested. About 1,510 of them (2.6%) count as active. 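Calls use total luciferase alone and ignore viability, so some active siRNAs may act by altering cell number.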 Reagents against one gene are numbered here.

Assay: 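Knock-downs that increase output of a recombinant reporter protein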 (primary screen)
Cell system: human HEK293 embryonic kidney cells stably expressing firefly luciferase (HEK-CMV-Luc2-Hygro)
Knock-down reagent: single siRNA against human genes, 0.8 pmol siRNA per well
Time to read-out: 72 h
Read-out: 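Luciferase light (ONE-Glo) measured on one replicate plate set and viability (CellTiter-Glo) on the other, scaled to a negative control siRNA, with robust z-scores and luciferase per cell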
Direction: total luciferase, z-score and total luciferase, % of control: higher = more reporter protein produced; luciferase per cell, z-score: higher = more reporter output per viable cell; viable cells, % of control: higher = more viable cells
Call rule: 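An siRNA counts as active if its total luciferase robust z-score exceeds 3; genes with two or more such siRNAs out of three were retested with fresh siRNAs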
Calls: active = raised luciferase; inactive = no rise

| target gene | reagent no. | total luciferase, z-score | total luciferase, % of control | luciferase per cell, z-score | viable cells, % of control | Call |
| --- | --- | --- | --- | --- | --- | --- |
| SH3GL1 | 1 | -0.611 | 69.7 | -0.751 | 95 | inactive |
| SH3GL1 | 2 | 0.283 | 87.5 | 0.215 | 92.4 | inactive |
| SH3GL1 | 3 | -0.205 | 77.8 | -0.516 | 99.6 | inactive |
| LENG8 | 1 | -0.212 | 77.7 | -0.26 | 93 | inactive |
| LENG8 | 2 | 0.715 | 96.1 | 0.858 | 85.7 | inactive |
| LENG8 | 3 | -0.482 | 72.3 | -0.36 | 88.8 | inactive |
| BTG2-DT | 1 | 1.98 | 121 | 1.83 | 83.7 | inactive |
| BTG2-DT | 2 | 1.24 | 107 | 0.915 | 93.6 | inactive |
| BTG2-DT | 3 | 0.00757 | 82 | -0.257 | 98.1 | inactive |
| ZDHHC20 | 1 | 0.832 | 98.4 | 1.3 | 78.1 | inactive |
| ZDHHC20 | 2 | 0.177 | 85.4 | 0.665 | 80.1 | inactive |
| ZDHHC20 | 3 | 0.113 | 84.1 | 0.469 | 83.1 | inactive |
| SLC16A2 | 1 | 0.149 | 84.8 | -0.636 | 112 | inactive |
| SLC16A2 | 2 | -1.2 | 58.1 | -1.65 | 100 | inactive |
| SLC16A2 | 3 | 0.178 | 85.4 | -0.331 | 104 | inactive |
| PBRM1 | 1 | 0.161 | 85.1 | 0.00531 | 94.9 | inactive |
| PBRM1 | 2 | 0.0971 | 83.8 | -0.149 | 97.4 | inactive |
| PBRM1 | 3 | -0.17 | 78.5 | -0.527 | 101 | inactive |
| INPP1 | 1 | 0.965 | 101 | 0.343 | 103 | inactive |
| INPP1 | 2 | -0.77 | 66.6 | -0.956 | 95.7 | inactive |
| INPP1 | 3 | 0.182 | 85.5 | 0.572 | 82.2 | inactive |
| C2CD2 | 1 | 0.686 | 95.5 | -0.116 | 110 | inactive |
| C2CD2 | 2 | 2.28 | 127 | 1.72 | 90.5 | inactive |
| C2CD2 | 3 | -0.404 | 73.9 | -0.463 | 93.2 | inactive |

Reprinted from the entries so far (3 entries):
| target gene | reagent no. | total luciferase, z-score | total luciferase, % of control | luciferase per cell, z-score | viable cells, % of control | Call |
| --- | --- | --- | --- | --- | --- | --- |
| SH3GL1 | 3 | -0.205 | 77.8 | -0.516 | 99.6 | inactive |
| LENG8 | 1 | -0.212 | 77.7 | -0.26 | 93 | inactive |
| LENG8 | 2 | 0.715 | 96.1 | 0.858 | 85.7 | inactive |
